{"source": "PubChem BioAssay AID1224826 (NIAID, 2016)", "aim": "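Regulators of Tlr4 signalling leading to Tnf-alpha expression in macrophages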 (primary screen)", "system": "RAW264.7 G9 macrophages from mouse bearing reporters for p65 (GFP) and the Tnf promoter (mCherry)", "reagents": "siRNA pool against mouse genes, 100 nM", "duration": "16 h of LPS stimulation, after 2 days of siRNA transfection", "conditions": "bacterial lipopolysaccharide (Salmonella minnesota R595), 10 ng/ml", "measurement": "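Nuclear mCherry signal of the Tnf promoter reporter measured by imaging after background removal, scaled to each plate median and turned into robust z-scores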", "reading the numbers": "Tnf reporter robust z-score: higher = stronger Tnf promoter reporter signal after LPS", "rule for the call": "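a well counts as active at a score of -1.3 or below (Tlr4 knock-down control median) or above 3 (raised signal); controls and wells holding fewer than 50 cells are excluded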", "meaning of the calls": "active = Tnf reporter clearly lowered or raised; inactive = no clear change in Tnf reporter", "note": "Here is one part, drawn at random, of about 17,000 reagents. In the full data, about 1,110 (6.6%) were called active. 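Active means lowered or raised reporter signal; replicate intensities are raw and not normalised per plate.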 Entries without a mark were called inactive. A reagent listed more than once was tested more than once; the source does not tell the runs apart. Further read-outs or replicates are left out here."}
The opening 2 records as a preview:
{"Target gene": "A630012P03Rik", "Tnf reporter robust z-score": 1.21, "fewer than 50 cells in well": "enough cells in well"}
{"Target gene": "Plcz1", "Tnf reporter robust z-score": -0.49, "fewer than 50 cells in well": "enough cells in well"}

Main list, repeating the preview:
{"Target gene": "A630012P03Rik", "Tnf reporter robust z-score": 1.21, "fewer than 50 cells in well": "enough cells in well"}
{"Target gene": "Plcz1", "Tnf reporter robust z-score": -0.49, "fewer than 50 cells in well": "enough cells in well"}
{"Target gene": "Abca2", "Tnf reporter robust z-score": -0.59, "fewer than 50 cells in well": "enough cells in well"}
{"Target gene": "Selenoo", "Tnf reporter robust z-score": -1.28, "fewer than 50 cells in well": "enough cells in well"}
{"Target gene": "Or1a1", "Tnf reporter robust z-score": 0.91, "fewer than 50 cells in well": "enough cells in well"}
{"Target gene": "Or1a1", "Tnf reporter robust z-score": 2.01, "fewer than 50 cells in well": "enough cells in well"}
{"Target gene": "Ern1", "Tnf reporter robust z-score": -0.78, "fewer than 50 cells in well": "enough cells in well"}
{"Target gene": "Or14a259", "Tnf reporter robust z-score": -0.73, "fewer than 50 cells in well": "enough cells in well"}
{"Target gene": "Afap1", "Tnf reporter robust z-score": -0.66, "fewer than 50 cells in well": "enough cells in well"}
{"Target gene": "Nfyb", "Tnf reporter robust z-score": "-1.77 (active)", "fewer than 50 cells in well": "enough cells in well"}
{"Target gene": "Lcp1", "Tnf reporter robust z-score": 0.01, "fewer than 50 cells in well": "enough cells in well"}
{"Target gene": "Adgra2", "Tnf reporter robust z-score": -0.01, "fewer than 50 cells in well": "enough cells in well"}
{"Target gene": "Mag", "Tnf reporter robust z-score": 2.07, "fewer than 50 cells in well": "enough cells in well"}
{"Target gene": "Fmo3", "Tnf reporter robust z-score": 0.35, "fewer than 50 cells in well": "enough cells in well"}
{"Target gene": "Fbxo42", "Tnf reporter robust z-score": -0.64, "fewer than 50 cells in well": "enough cells in well"}
{"Target gene": "Foxe3", "Tnf reporter robust z-score": -0.28, "fewer than 50 cells in well": "enough cells in well"}
{"Target gene": "Fam167a", "Tnf reporter robust z-score": "-1.52 (active)", "fewer than 50 cells in well": "enough cells in well"}
{"Target gene": "Gm5105", "Tnf reporter robust z-score": -1.23, "fewer than 50 cells in well": "enough cells in well"}
{"Target gene": "Zc3h15", "Tnf reporter robust z-score": 0.23, "fewer than 50 cells in well": "enough cells in well"}
{"Target gene": "Caln1", "Tnf reporter robust z-score": -0.03, "fewer than 50 cells in well": "enough cells in well"}
{"Target gene": "Krtap3-3", "Tnf reporter robust z-score": 0.12, "fewer than 50 cells in well": "enough cells in well"}
